Laboratory results: publication doi:10.1101/2020.03.13.991679
No constants are given. Whether binding was seen depends on the method and setting. Binding seen in cells or lysates may run through a third protein. Some binding calls cover weakened binding; strength is not graded here.

The chains behind the UniProt entries cited, without tags or fusion partners.
UniProt P06492: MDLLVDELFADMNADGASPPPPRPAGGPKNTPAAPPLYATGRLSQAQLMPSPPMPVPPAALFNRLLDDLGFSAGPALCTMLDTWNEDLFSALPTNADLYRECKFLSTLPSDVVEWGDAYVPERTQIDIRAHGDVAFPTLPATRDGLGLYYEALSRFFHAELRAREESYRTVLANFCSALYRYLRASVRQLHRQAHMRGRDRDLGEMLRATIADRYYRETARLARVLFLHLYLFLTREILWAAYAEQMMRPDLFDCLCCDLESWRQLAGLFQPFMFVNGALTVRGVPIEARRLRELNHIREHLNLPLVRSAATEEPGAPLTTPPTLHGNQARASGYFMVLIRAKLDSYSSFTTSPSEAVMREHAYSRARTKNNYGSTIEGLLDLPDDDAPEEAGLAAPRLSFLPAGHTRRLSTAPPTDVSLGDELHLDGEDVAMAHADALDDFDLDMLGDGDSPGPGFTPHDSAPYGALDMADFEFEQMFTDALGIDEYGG

Target: HSV-1 viral protein 16 (VP16), FLAG-tagged (HSV-1) (UniProt P06492)
Experiment: co-IP

B1: Host Cell Factor C1 Regulator 1 (HCFC1R1) (protein, UniProt Q9NWW0 1-138)
chain: MILQQPLQRGPQGGAQRLPRAALGVTWGLDASSPLRGAVPMSTKRRLEEEQEPLRKQFLSEENMATHFSQLSLHNDHPYCSPPMTFSPALPPLRSPCSELLLWRYPGSLIPEALRLLRLGDTPSPPYPATPAGDIMEL
In the case of B1, the binding is reported as “binds”.
